# Publication PMC5996148
# Several values for one entry are separate records, joined by “and”; a condition that tells them apart may be missing. Identical values can stand only once. This is one part of the list.
# What was measured:
# Assay in all cases: protein microarray (ProtoArray v5.0), streptavidin-Alexa Fluor 647
# Conditions in all cases: 3'-biotin; 20 mM Tris (pH 7.5), 5 mM MgCl2, 100 mM KCl, 0.1% Tween-20, A/T-rich and random oligonucleotide blockers; temperature not stated; high values mean tight binding
# LGALS1 (human) = system: LGALS1 (human)
# LGALS3 (human) = system: LGALS3 (human)
# LGALS8 (human) = system: LGALS8 (human)
# LGI1 (human) = system: LGI1 (human)
# LILRB1 (human) = system: LILRB1 (human)
# LILRB2 (human) = system: LILRB2 (human)
# [1] = system: LIM domain kinase 2 (human)
# LIMD1 (human) = system: LIMD1 (human)
# [2] = system: LINE-1 type transposase domain-containing protein 1 (human)
# LMAN1L (human) = system: LMAN1L (human)
# LMX1A (human) = system: LMX1A (human)
# LOC113386 (human) = system: LOC113386 (human)
# LOC124220 (human) = system: LOC124220 (human)
# LOC124446 (human) = system: LOC124446 (human)
# LOC144631 (human) = system: LOC144631 (human)
# LOC149267 (human) = system: LOC149267 (human)
# LOC151534 (human) = system: LOC151534 (human)
# LOC152024 (human) = system: LOC152024 (human)
# [3] = system: LOC153684 protein (human)
# LOC170425 (human) = system: LOC170425 (human)
sequence,measurement,setting,value
GGGAGGCTGAGGCAGG [G4-1 biotinylated (PQS2)],binding signal,LGALS1 (human),-0.322 z-score
same,binding signal,LGALS3 (human),-0.292 z-score and -0.351 z-score
same,binding signal,LGALS8 (human),-0.296 z-score and -0.275 z-score
same,binding signal,LGI1 (human),-0.295 z-score
same,binding signal,LILRB1 (human),-0.343 z-score
same,binding signal,LILRB2 (human),-0.334 z-score
same,binding signal,[1],-0.295 z-score
same,binding signal,LIMD1 (human),-0.346 z-score
same,binding signal,[2],-0.253 z-score
same,binding signal,LMAN1L (human),-0.344 z-score
same,binding signal,LMX1A (human),-0.349 z-score
same,binding signal,LOC113386 (human),-0.343 z-score
same,binding signal,LOC124220 (human),-0.306 z-score
same,binding signal,LOC124446 (human),-0.327 z-score
same,binding signal,LOC144631 (human),-0.341 z-score
same,binding signal,LOC149267 (human),-0.322 z-score
same,binding signal,LOC151534 (human),-0.252 z-score
same,binding signal,LOC152024 (human),-0.281 z-score
same,binding signal,[3],3.85 z-score
same,binding signal,LOC170425 (human),-0.327 z-score
